Experimental data as given in PubChem BioAssay AID256 (DTP/NCI, 2004).
The list shows only some results of the screen, not a fair sample: it gathers tests that were run many times, whatever their T/C, doses with no T/C, and many T/C values between a quarter and a half above the control. Other doses and runs of a compound stand elsewhere. T/C gives the treated animals as a percentage of the vehicle group. Some entries give survivors of the animals treated and no T/C: the source holds a T/C of zero for them, seemingly a mark for toxic or unscored doses. Some doses without a T/C left all or most animals alive at the check, yet need not have been tolerated: survival well below the control is almost never listed, so the zero probably covers shortened survival too. Counts of survivors are from the toxicity check (mostly the fifth day) where no day follows; animals may have died later. Schedule codes are those of the source, read here as Q, the interval in days (D) or hours (H), X, the number of doses. Some entries were tested several times; their values stand side by side, smallest first. Where survival is the endpoint, this PubChem deposit counts one and a half times the control or more as active, and values a quarter to a half above the control carry no call in these data; other NCI protocols may use other cut-offs. Some T/C values are followed by the survivors on the day toxicity was checked, most often the fifth; where none is given, no animal had died by that day. Signs of the kind (2×) stand for listed records that agree.

System: CD2F1 mice, L1210 leukemia ip, survival T/C
Experiment: NCI In Vivo Anticancer Drug Screen. Data for tumor model L1210 Leukemia (intraperitoneal) in CD2F1 (CDF1) mice
Settings: higher T/C = longer survival
Procedure, shortened: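 Transplantable tumor in mice; compound-treated vs vehicle-treated groups. Read-out = treated/control ratio of the measured endpoint.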

[1] = T/C endpoint: mean survival time, dose: 150.0 mg/kg/injection, schedule: Q01DX001 (ip), vehicle: saline
[2] = T/C endpoint: mean survival time, dose: 300.0 mg/kg/injection, schedule: Q01DX001 (ip), vehicle: saline
[3] = T/C endpoint: mean survival time, dose: 400.0 mg/kg/injection, schedule: Q01DX009 (ip), vehicle: saline with Tween-80
[4] = T/C endpoint: mean survival time, dose: 200.0 mg/kg/injection, schedule: Q04DX003 (ip), vehicle: saline with Tween-80
[5] = T/C endpoint: mean survival time, dose: 400.0 mg/kg/injection, schedule: Q04DX003 (ip), vehicle: saline with Tween-80
[6] = T/C endpoint: mean survival time, dose: 50.0 mg/kg/injection, schedule: Q01DX009 (ip), vehicle: saline
[7] = T/C endpoint: mean survival time, dose: 100.0 mg/kg/injection, schedule: Q01DX009 (ip), vehicle: saline with Tween-80
[8] = T/C endpoint: mean survival time, dose: 200.0 mg/kg/injection, schedule: Q01DX009 (ip), vehicle: saline with Tween-80
[9] = T/C endpoint: mean survival time, dose: 400.0 mg/kg/injection, schedule: Q04DX002 (ip), vehicle: saline with Tween-80
[10] = T/C endpoint: mean survival time, dose: 400.0 mg/kg/injection, schedule: Q01DX001 (ip), vehicle: saline with Tween-80

SMILES: O=C1/C(=C/C2CCC3CCCCC3[N-]2)N2CCC1CC2.[Cl][Co][Cl] (stereo not given)
- survivor count (T/C endpoint: mean survival time, dose: 75.0 mg/kg/injection, schedule: Q01DX001 (ip), vehicle: saline): 2 of 6
- survivor count [1]: 0 of 6
- survivor count [2]: 1 of 6

SMILES: COc1ccc(CCNCCc2ccc(OC)c(OC)c2)cc1OC
- survivor count (T/C endpoint: mean survival time, dose: 200.0 mg/kg/injection, schedule: Q01DX009 (ip), vehicle: water): 0 of 6

SMILES: CCCCCCC#CC(=O)OC
- survivor count [3]: 2 of 6

SMILES: CCN(CC)Cc1cc(Nc2cc(C)nc(/N=C(\N)Nc3cc(Cl)cc(Cl)c3)n2)ccc1O
- survivor count (T/C endpoint: mean survival time, dose: 400.0 mg/kg/injection, schedule: Q01DX001 (ip), vehicle: Klucel (hydroxypropylcellulose) (HPC)): 1 of 6

SMILES: CC(C)=CCNc1ncnc2c1ncn2C1OC(COP(=O)(O)O)C(O)C1O (stereo not given)
- survivor count (T/C endpoint: mean survival time, dose: 400.0 mg/kg/injection, schedule: Q01DX005 (ip), vehicle: water): 0 of 6

SMILES: O=C1C=C(O)c2ccccc2C1=O
- survivor count (T/C endpoint: mean survival time, dose: 100.0 mg/kg/injection, schedule: Q04DX003 (ip), vehicle: saline with Tween-80): 0 of 3
- survivor count [4]: 3 of 3
- survivor count [5]: 0 of 3

SMILES: OCCN1CC1
- survivor count (T/C endpoint: mean survival time, dose: 12.5 mg/kg/injection, schedule: Q01DX009 (ip), vehicle: saline): 2 of 6
- survivor count (T/C endpoint: mean survival time, dose: 25.0 mg/kg/injection, schedule: Q01DX009 (ip), vehicle: saline): 0 of 6
- survivor count [6]: 0 of 6

SMILES: NNc1nnc(Cl)cc1N
- survivor count [4]: 1 of 6
- survivor count [5]: 0 of 6

SMILES: CCOC(=O)C(CCC(O)C#N)(CC(C)=O)C(=O)OCC (stereo not given)
- survivor count [1]: 0 of 6
- survivor count [2]: 0 of 6

SMILES: O=C(/C=C/c1ccccc1)NC(=S)NCc1ccccc1Cl
- T/C [7]: 87, 89 [2 of 3 alive], 92, 100 % of control
- T/C [8]: 88, 95, 97, 100 % of control
- T/C [3]: 90, 97, 100 % of control
- survivor count [3]: 1 of 3

SMILES: CC(C)=CCC/C(C)=C/CN
- survivor count [6]: 4 of 6
- survivor count (T/C endpoint: mean survival time, dose: 100.0 mg/kg/injection, schedule: Q01DX009 (ip), vehicle: saline): 2 of 6
- survivor count (T/C endpoint: mean survival time, dose: 200.0 mg/kg/injection, schedule: Q04DX003 (ip), vehicle: saline): 1 of 6
- survivor count (T/C endpoint: mean survival time, dose: 400.0 mg/kg/injection, schedule: Q04DX003 (ip), vehicle: saline): 0 of 6

SMILES: O=C1C(F)=C(F)C(=O)C(F)=C1F
- survivor count (T/C endpoint: mean survival time, dose: 12.5 mg/kg/injection, schedule: Q01DX009 (ip), vehicle: Klucel (hydroxypropylcellulose) (HPC)): 2 of 6
- survivor count (T/C endpoint: mean survival time, dose: 25.0 mg/kg/injection, schedule: Q01DX009 (ip), vehicle: Klucel (hydroxypropylcellulose) (HPC)): 0 of 6
- survivor count (T/C endpoint: mean survival time, dose: 50.0 mg/kg/injection, schedule: Q01DX009 (ip), vehicle: Klucel (hydroxypropylcellulose) (HPC)): 0 of 6
- survivor count (T/C endpoint: mean survival time, dose: 100.0 mg/kg/injection, schedule: Q01DX009 (ip), vehicle: Klucel (hydroxypropylcellulose) (HPC)): 0 of 6

SMILES: CCCCCOC(=S)S
- survivor count (T/C endpoint: mean survival time, dose: 18.75 mg/kg/injection, schedule: Q04DX003 (ip), vehicle: Klucel (hydroxypropylcellulose) (HPC)): 6 of 6
- survivor count (T/C endpoint: mean survival time, dose: 75.0 mg/kg/injection, schedule: Q04DX003 (ip), vehicle: saline sonified): 6 of 6
- survivor count (T/C endpoint: mean survival time, dose: 150.0 mg/kg/injection, schedule: Q04DX003 (ip), vehicle: saline sonified): 1 of 6
- survivor count (T/C endpoint: mean survival time, dose: 300.0 mg/kg/injection, schedule: Q04DX003 (ip), vehicle: saline sonified): 0 of 6

SMILES: CCC[CH2][Sn]1([CH2]CCC)[O]OC2(CCCCC2)[O]1
- survivor count (T/C endpoint: mean survival time, dose: 10.0 mg/kg/injection, schedule: Q01DX009 (ip), vehicle: saline with Tween-80): 2 of 6

SMILES: O=C1NC(c2ccccc2)N=C2Oc3ccccc3C=C12 (stereo not given)
- T/C (T/C endpoint: mean survival time, dose: 12.5 mg/kg/injection, schedule: Q01DX009 (ip), vehicle: saline with Tween-80): 97 (2×), 98, 104 % of control
- T/C (T/C endpoint: mean survival time, dose: 25.0 mg/kg/injection, schedule: Q01DX009 (ip), vehicle: saline with Tween-80): 95, 105 (2×), 119 % of control
- T/C (T/C endpoint: mean survival time, dose: 50.0 mg/kg/injection, schedule: Q01DX009 (ip), vehicle: saline with Tween-80): 93, 98, 101, 127 % of control
- survivor count [7]: 2 of 6 and 6 of 6

SMILES: O=C(OCC1OC(n2cnc3c(=S)nc[nH]c32)C(OC(=O)c2ccc([N+](=O)[O-])cc2)C1OC(=O)c1ccc([N+](=O)[O-])cc1)c1ccc([N+](=O)[O-])cc1 (stereo not given)
- survivor count [8]: 5 of 6
- survivor count (T/C endpoint: mean survival time, dose: 300.0 mg/kg/injection, schedule: Q01DX009 (ip), vehicle: saline with Tween-80): 2 of 6

SMILES: CCCCCCCCCCCCCCCCCC[N+](CCO)(CCO)Cc1ccc(C[N+](CCO)(CCO)CCCCCCCCCCCCCCCCCC)cc1
- survivor count (T/C endpoint: mean survival time, dose: 100.0 mg/kg/injection, schedule: Q04DX002 (ip), vehicle: saline with Tween-80): 0 of 3
- survivor count (T/C endpoint: mean survival time, dose: 200.0 mg/kg/injection, schedule: Q04DX002 (ip), vehicle: saline with Tween-80): 1 of 3
- survivor count [9]: 0 of 3

SMILES: O=C(O)C(O)C(O)C(=O)O.[Cu+2] (stereo not given)
- survivor count (T/C endpoint: mean survival time, dose: 100.0 mg/kg/injection, schedule: Q01DX001 (ip), vehicle: saline): 0 of 6
- survivor count (T/C endpoint: mean survival time, dose: 200.0 mg/kg/injection, schedule: Q01DX001 (ip), vehicle: saline): 0 of 6
- survivor count (T/C endpoint: mean survival time, dose: 400.0 mg/kg/injection, schedule: Q01DX001 (ip), vehicle: saline): 0 of 6

SMILES: COc1ccc(C(CC(=O)c2ccccc2)CC(=O)c2ccccc2)cc1
- survivor count [7]: 6 of 6

SMILES: Cc1cccc(CC(F)F)c1
- survivor count [10]: 3 of 6

SMILES: O=C(CCl)Nc1cccc(Cl)c1
- survivor count [3]: 6 of 6

SMILES: CCO/N=C(\C)CSC1=NCCN1
- survivor count (T/C endpoint: mean survival time, dose: 300.0 mg/kg/injection, schedule: Q04DX003 (ip), vehicle: saline): 1 of 6

SMILES: CC[C@@]1(O)C(=O)OCc2c1cc1n(c2=O)Cc2cc3c(N)cccc3nc2-1
- T/C (T/C endpoint: median survival time, dose: 0.18 mg/kg/injection, schedule: Q01DX005 (ip), vehicle: saline with Tween-80): 137 % of control
- survivor count (T/C endpoint: median survival time, dose: 4.0 mg/kg/injection, schedule: Q01DX005 (ip), vehicle: saline with Tween-80): 6 of 6
- survivor count (T/C endpoint: median survival time, dose: 10.0 mg/kg/injection, schedule: Q04DX002 (ip), vehicle: saline with Tween-80): 6 of 6
- survivor count (T/C endpoint: median survival time, dose: 20.0 mg/kg/injection, schedule: Q04DX002 (ip), vehicle: saline with Tween-80): 6 of 6
- survivor count (T/C endpoint: median survival time, dose: 40.0 mg/kg/injection, schedule: Q04DX002 (ip), vehicle: saline with Tween-80): 6 of 6

SMILES: CC1(c2ccccc2)C(C#N)C(=O)NC(=O)C1C#N (stereo not given)
- survivor count [3]: 3 of 6

SMILES: CC(=O)Nc1ccc(S(=O)(=O)F)cc1
- survivor count [8]: 1 of 6
- survivor count [10]: 0 of 3
- survivor count [5]: 2 of 6

SMILES: CCOC(=O)C1C2CC(O)C(O)CC21 (stereo not given)
- survivor count (T/C endpoint: median survival time, dose: 100.0 mg/kg/injection, schedule: Q04DX003 (ip), vehicle: saline with Tween-80): 3 of 3
- survivor count (T/C endpoint: median survival time, dose: 200.0 mg/kg/injection, schedule: Q04DX003 (ip), vehicle: saline with Tween-80): 3 of 3

SMILES: CC1(C)N=C(N)N=C(N)N1c1cccc(CCCCc2ccc(S(=O)(=O)F)cc2Cl)c1
- survivor count (T/C endpoint: mean survival time, dose: 50.0 mg/kg/injection, schedule: Q01DX009 (ip), vehicle: saline sonified): 3 of 6
- survivor count (T/C endpoint: mean survival time, dose: 100.0 mg/kg/injection, schedule: Q04DX003 (ip), vehicle: saline sonified): 4 of 6
- survivor count (T/C endpoint: mean survival time, dose: 200.0 mg/kg/injection, schedule: Q04DX003 (ip), vehicle: saline sonified): 1 of 6
- survivor count (T/C endpoint: mean survival time, dose: 400.0 mg/kg/injection, schedule: Q04DX003 (ip), vehicle: saline sonified): 0 of 6

SMILES: CCCNC1=C(C)C(=O)C2=C(C1=O)[C@H](COC(N)=O)[C@]1(OC)[C@@H]3N[C@@H]3CN21
- T/C (T/C endpoint: median survival time, dose: 3.12 mg/kg/injection, schedule: Q01DX009 (ip), vehicle: saline): 128 % of control

SMILES: S=C1CCCCN1
- survivor count (T/C endpoint: median survival time, dose: 400.0 mg/kg/injection, schedule: Q01DX009 (ip), vehicle: distilled water + alcohol): 0 of 6

SMILES: O=CNc1cc2ccccc2c2ccc3ccccc3c12
- survivor count [5]: 5 of 6

SMILES: Cn1c(CC(O)(C(F)(F)F)C(F)(F)F)cc(=O)n1-c1ccccc1
- survivor count [5]: 6 of 6

SMILES: COC(=O)C(c1ccccc1)C(c1ccccc1)c1ccccc1 (stereo not given)
- survivor count [9]: 3 of 3
